This assay has as its system L1210 leukemia ip in BDF1 mice, survival T/C. The assay can be described thus: NCI In Vivo Anticancer Drug Screen. Data for tumor model L1210 Leukemia (intraperitoneal) in B6D2F1 (BDF1) mice. The following applies: T/C endpoint: mean survival time, higher T/C = longer survival.
Setting [1] is: dose: 400.0 mg/kg/injection, schedule: Q01DX001 (ip), vehicle: saline.

The list shows only some results of the screen, not a fair sample: it is rich in T/C values a quarter to a half above the control, in often repeated tests (any T/C) and in doses without a T/C. Further doses and runs are listed elsewhere. T/C is the treated group as % of the vehicle group. Some doses have a count of surviving animals in place of a T/C: the source holds a T/C of zero for them, seemingly a mark for toxic or unscored doses. Some doses without a T/C left all or most animals alive at the check, yet need not have been tolerated: the source hardly ever lists a survival T/C far under the control, and the zero likely stands for such cases as well. Survivors were counted at the toxicity check, usually on the fifth day, unless a day is given; later deaths do not show. Schedules are NCI's codes, taken here to give the interval after Q, in days (D) or hours (H), and the number of doses after X. Some molecules as drawn cover several salts, stereoisomers or complexes of the source; a dose is that of the sample tested. For survival time, this PubChem deposit counts one and a half times the control or more as active, and values a quarter to a half above the control carry no call in these data; other NCI protocols may use other cut-offs. Some entries were tested several times; the results are listed from low to high.

`CCCC(C)NNC(C)CCC` (stereo unspecified): the survivor count reads like this: (dose: 150.0 mg/kg/injection, schedule: Q01DX001 (ip), vehicle: other) 3 of 6; (dose: 300.0 mg/kg/injection, schedule: Q01DX001 (ip), vehicle: acetone) 2 of 6; (dose: 300.0 mg/kg/injection, schedule: Q01DX001 (ip), vehicle: other) 2 of 6.

Regarding `O=C(c1ccc(C(=O)N(C2CCCCC2)C2CCCCC2)cc1)N(C1CCCCC1)C1CCCCC1`, the survivor count (dose: 100.0 mg/kg/injection, schedule: Q01DX001 (ip), vehicle: saline) is 1 of 6; the survivor count (dose: 200.0 mg/kg/injection, schedule: Q01DX001 (ip), vehicle: saline) is listed as 0 of 6; the survivor count under setting [1] was 0 of 6.

In the case of `Cc1nc(N)[nH]c(=O)c1NC(=O)CBr`, the survivor count is given as 0 of 3 (dose: 200.0 mg/kg/injection, schedule: Q01DX001 (ip), vehicle: Klucel (hydroxypropylcellulose) (HPC)) and 0 of 3 (dose: 400.0 mg/kg/injection, schedule: Q01DX001 (ip), vehicle: Klucel (hydroxypropylcellulose) (HPC)).

Turning to `Oc1ccccc1C1CC2CCC1C2` (stereo unspecified), the survivor count was 5 of 6 (dose: 200.0 mg/kg/injection, schedule: Q01DX009 (ip), vehicle: saline with Tween-80) and 0 of 6 (dose: 400.0 mg/kg/injection, schedule: Q01DX009 (ip), vehicle: saline with Tween-80).

Take `ClC1C2c3ccccc3C(C1Cl)[n+]1ccccc12` (stereo unspecified): the survivor count by setting is: (dose: 55.0 mg/kg/injection, schedule: Q01DX009 (ip), vehicle: Klucel (hydroxypropylcellulose) (HPC)) 4 of 6; (dose: 80.0 mg/kg/injection, schedule: Q01DX009 (ip), vehicle: Klucel (hydroxypropylcellulose) (HPC)) 0 of 6; (dose: 100.0 mg/kg/injection, schedule: Q04DX003 (ip), vehicle: Klucel (hydroxypropylcellulose) (HPC)) 2 of 6; (dose: 200.0 mg/kg/injection, schedule: Q04DX003 (ip), vehicle: Klucel (hydroxypropylcellulose) (HPC)) 0 of 6; (dose: 400.0 mg/kg/injection, schedule: Q04DX003 (ip), vehicle: Klucel (hydroxypropylcellulose) (HPC)) 1 of 6.

For the molecule `COc1ccccc1/C=C(\SS/C(=C/c1ccccc1OC)C(=O)O)C(=O)O`, under setting [1], the survivor count is listed as 2 of 4.

As to `CC(=O)NC1CCC(CC2CCCCC2)CC1` (stereo unspecified), under “dose: 400.0 mg/kg/injection, schedule: Q01DX009 (ip), vehicle: Klucel (hydroxypropylcellulose) (HPC)”, the survivor count is reported as 0 of 6.

In the case of `OCc1nc2cc3nc(CO)[nH]c3cc2[nH]1`, the survivor count (dose: 300.0 mg/kg/injection, schedule: Q01DX001 (ip), vehicle: carboxymethylcellulose (CMC)) is listed as 0 of 6.

`COc1cc2ccc(C(C)N)cc2cc1OC` (stereo unspecified): the survivor count (dose: 400.0 mg/kg/injection, schedule: Q04DX003 (ip), vehicle: saline) is 1 of 6.

In the case of `COc1cccc2c1C(=O)c1c(O)c3c(c(O)c1C2=O)C[C@@](O)(C(=O)COC(C)=O)C[C@@H]3OC1CC(N)C(O)C(C)O1` (stereo partly specified), the T/C by setting is: (dose: 1.0 mg/kg/injection, schedule: Q04DX003 (ip), vehicle: saline) 132 % of control; (dose: 1.1 mg/kg/injection, schedule: Q04DX003 (ip), vehicle: saline) 130 and 138 % of control; (dose: 1.5 mg/kg/injection, schedule: Q04DX003 (ip), vehicle: saline) 134 % of control; (dose: 1.6 mg/kg/injection, schedule: Q04DX003 (ip), vehicle: saline) 130 % of control; (dose: 2.3 mg/kg/injection, schedule: Q04DX003 (ip), vehicle: saline) 142 % of control.

Take `OC(c1ccccc1)(c1ccccc1)C1CCC1`: the survivor count (dose: 200.0 mg/kg/injection, schedule: Q01DX009 (ip), vehicle: Klucel (hydroxypropylcellulose) (HPC)) was 5 of 5.

On to `COC(=O)/C=C(\C)Nc1ccc(Cc2ccc(NC(C)=O)cc2)cc1`, for which, under setting [1], the survivor count was 3 of 6.
